From patent US6803233B2, “Model for Alzheimer's disease and other neurodegenerative diseases” (priority 2000, dated 2004)
For at least one compound, name, drawing or mass did not settle the structure.

Key:
tangle-like structures = experiment: AT8 immunostaining of cultured rat hippocampal slices; type: cell-based; details: agent applied for 6 days
microglia = experiment: CD11b immunostaining of hippocampus of rats injected daily with statins; type: in vivo, rat; details: 10 mg/kg i.p. daily for 39 days
Procedure: Brains were then removed, postfixed in perfusate for 5-6 hors, and cryoprotected in 15% sucrose/PB followed by 30% sucrose/PB (12-24 hours each) at 4° C. Coronal sections were cut at 20-30 μm by using a freezing microtome and collected into PBS. Immunostaining was performed as described for the in vitro experiments using monoclonal antibody CD11b that reacts with both active and non-active microglia.

SMILES | induction of AT8-immunoreactive tangle-like structures (tangle-like structures) | induction of AT8-immunoreactive tangle-like structures (tangle-like structures; listed as Pravastatin) | CD11b immunostaining in hippocampus (microglia) | density of microglia versus control tissue (microglia)
CC[C@H](C)C(=O)O[C@H]1C[C@H](O)C=C2C=C[C@H](C)[C@H](CC[C@@H](O)C[C@@H](O)CC(=O)O)[C@H]21 [pravastatin] | Induction of tangle-like structures | induces the formation of tangle-like structures |  | 
CCC(C)(C)C(=O)O[C@H]1C[C@@H](C)C=C2C=C[C@H](C)[C@H](CC[C@@H]3C[C@@H](O)CC(=O)O3)[C@H]21 [simvastatin] |  |  | generally dense | higher
